These are yes or no findings as the source states them, for the method shown. Binding seen in cells or lysates may run through a third protein. Some entries that bind do so weakly or less than the wild type.
Target: T1, human Nup93, endogenous (human (endogenous in HeLa)) (UniProt Q8N1F7)
T1 sequence: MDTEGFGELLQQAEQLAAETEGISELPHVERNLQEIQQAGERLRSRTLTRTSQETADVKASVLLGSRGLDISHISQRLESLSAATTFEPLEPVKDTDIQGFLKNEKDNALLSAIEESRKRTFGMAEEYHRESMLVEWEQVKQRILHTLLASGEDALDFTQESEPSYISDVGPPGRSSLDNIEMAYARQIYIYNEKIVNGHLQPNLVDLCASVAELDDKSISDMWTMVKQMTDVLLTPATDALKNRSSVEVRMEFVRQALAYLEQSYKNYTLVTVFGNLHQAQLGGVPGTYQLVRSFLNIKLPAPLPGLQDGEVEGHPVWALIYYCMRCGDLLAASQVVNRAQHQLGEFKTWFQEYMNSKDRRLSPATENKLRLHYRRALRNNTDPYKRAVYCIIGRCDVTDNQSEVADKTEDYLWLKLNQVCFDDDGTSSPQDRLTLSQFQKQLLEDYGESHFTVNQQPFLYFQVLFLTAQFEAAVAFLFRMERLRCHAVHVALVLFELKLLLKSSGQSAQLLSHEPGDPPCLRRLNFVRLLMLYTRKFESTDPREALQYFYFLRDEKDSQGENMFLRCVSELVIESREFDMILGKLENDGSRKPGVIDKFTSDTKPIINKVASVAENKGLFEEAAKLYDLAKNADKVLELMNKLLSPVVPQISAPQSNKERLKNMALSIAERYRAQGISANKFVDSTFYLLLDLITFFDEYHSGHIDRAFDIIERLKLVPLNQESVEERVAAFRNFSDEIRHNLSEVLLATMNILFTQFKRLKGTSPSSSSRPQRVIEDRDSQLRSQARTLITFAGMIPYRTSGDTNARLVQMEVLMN
Assay: pull-down; proteins co-purifying with the Nup that was captured by the immobilised nanobody from HeLa lysate or Xenopus egg extract; SDS-PAGE/Coomassie, identities confirmed by mass spectrometry

Amino acid sequences for entries named in this document (tags omitted).
UniProt Q92621: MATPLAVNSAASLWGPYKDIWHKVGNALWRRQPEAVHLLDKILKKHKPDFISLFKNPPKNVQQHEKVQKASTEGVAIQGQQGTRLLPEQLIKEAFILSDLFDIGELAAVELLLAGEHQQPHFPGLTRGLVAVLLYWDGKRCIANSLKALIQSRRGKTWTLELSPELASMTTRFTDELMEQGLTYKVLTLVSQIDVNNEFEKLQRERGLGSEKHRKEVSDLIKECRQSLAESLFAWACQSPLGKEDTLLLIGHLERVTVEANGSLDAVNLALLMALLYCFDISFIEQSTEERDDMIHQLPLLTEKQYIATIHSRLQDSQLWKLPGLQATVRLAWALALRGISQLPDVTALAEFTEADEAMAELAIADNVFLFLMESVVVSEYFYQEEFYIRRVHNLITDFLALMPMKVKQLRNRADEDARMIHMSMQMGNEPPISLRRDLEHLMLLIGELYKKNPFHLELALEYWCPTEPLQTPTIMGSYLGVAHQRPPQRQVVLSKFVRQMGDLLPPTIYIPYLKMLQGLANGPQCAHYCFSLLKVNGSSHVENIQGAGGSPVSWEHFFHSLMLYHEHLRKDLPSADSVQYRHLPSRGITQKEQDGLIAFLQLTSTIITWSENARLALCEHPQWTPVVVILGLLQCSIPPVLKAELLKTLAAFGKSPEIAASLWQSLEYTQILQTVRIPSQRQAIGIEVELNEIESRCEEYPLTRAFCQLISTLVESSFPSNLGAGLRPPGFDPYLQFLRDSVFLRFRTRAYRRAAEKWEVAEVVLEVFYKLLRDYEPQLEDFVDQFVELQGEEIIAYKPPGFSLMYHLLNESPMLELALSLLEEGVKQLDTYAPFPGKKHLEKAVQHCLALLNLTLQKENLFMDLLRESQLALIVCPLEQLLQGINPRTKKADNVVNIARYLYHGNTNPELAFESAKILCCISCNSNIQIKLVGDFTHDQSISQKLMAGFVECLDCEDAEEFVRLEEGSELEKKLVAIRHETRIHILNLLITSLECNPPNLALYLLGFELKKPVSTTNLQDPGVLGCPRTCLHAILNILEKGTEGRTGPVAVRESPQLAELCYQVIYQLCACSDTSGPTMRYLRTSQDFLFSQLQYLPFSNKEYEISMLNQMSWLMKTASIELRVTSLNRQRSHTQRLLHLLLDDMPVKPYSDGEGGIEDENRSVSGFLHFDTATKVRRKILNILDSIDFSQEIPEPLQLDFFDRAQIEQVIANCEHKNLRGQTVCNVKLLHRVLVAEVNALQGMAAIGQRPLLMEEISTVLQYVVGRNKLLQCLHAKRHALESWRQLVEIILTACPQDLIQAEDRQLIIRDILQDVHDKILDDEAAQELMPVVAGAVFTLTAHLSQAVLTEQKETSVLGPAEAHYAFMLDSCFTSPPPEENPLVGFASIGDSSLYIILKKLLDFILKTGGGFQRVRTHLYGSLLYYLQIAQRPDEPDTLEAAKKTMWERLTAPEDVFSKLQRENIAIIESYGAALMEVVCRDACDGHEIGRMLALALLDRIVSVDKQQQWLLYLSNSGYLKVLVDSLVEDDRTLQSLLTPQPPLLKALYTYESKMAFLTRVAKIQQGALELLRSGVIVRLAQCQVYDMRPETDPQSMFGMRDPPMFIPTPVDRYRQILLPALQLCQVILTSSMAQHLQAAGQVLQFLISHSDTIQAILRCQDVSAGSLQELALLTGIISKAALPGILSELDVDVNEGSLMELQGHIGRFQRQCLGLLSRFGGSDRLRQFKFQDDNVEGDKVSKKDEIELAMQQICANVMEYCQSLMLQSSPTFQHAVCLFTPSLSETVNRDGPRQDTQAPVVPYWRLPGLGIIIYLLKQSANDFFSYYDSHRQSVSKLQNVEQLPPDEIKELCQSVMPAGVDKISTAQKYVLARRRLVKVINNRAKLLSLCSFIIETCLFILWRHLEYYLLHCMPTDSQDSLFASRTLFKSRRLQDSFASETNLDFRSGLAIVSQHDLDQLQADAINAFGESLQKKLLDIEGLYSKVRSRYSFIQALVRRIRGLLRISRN

For “human Nup205, endogenous (from UniProt Q92621 1-2012)”, the binding was “binds”.
